Results from paper PMC11197005.
These are yes or no findings as the source states them, for the method shown. Some results given as binding are weak or reduced against the parent protein; the word gives no strength.

Protein sequences, listed by entry. Tags and fused reporters are not part of them. Residues count along the entry.
UniProt P08603, residues 19-1231: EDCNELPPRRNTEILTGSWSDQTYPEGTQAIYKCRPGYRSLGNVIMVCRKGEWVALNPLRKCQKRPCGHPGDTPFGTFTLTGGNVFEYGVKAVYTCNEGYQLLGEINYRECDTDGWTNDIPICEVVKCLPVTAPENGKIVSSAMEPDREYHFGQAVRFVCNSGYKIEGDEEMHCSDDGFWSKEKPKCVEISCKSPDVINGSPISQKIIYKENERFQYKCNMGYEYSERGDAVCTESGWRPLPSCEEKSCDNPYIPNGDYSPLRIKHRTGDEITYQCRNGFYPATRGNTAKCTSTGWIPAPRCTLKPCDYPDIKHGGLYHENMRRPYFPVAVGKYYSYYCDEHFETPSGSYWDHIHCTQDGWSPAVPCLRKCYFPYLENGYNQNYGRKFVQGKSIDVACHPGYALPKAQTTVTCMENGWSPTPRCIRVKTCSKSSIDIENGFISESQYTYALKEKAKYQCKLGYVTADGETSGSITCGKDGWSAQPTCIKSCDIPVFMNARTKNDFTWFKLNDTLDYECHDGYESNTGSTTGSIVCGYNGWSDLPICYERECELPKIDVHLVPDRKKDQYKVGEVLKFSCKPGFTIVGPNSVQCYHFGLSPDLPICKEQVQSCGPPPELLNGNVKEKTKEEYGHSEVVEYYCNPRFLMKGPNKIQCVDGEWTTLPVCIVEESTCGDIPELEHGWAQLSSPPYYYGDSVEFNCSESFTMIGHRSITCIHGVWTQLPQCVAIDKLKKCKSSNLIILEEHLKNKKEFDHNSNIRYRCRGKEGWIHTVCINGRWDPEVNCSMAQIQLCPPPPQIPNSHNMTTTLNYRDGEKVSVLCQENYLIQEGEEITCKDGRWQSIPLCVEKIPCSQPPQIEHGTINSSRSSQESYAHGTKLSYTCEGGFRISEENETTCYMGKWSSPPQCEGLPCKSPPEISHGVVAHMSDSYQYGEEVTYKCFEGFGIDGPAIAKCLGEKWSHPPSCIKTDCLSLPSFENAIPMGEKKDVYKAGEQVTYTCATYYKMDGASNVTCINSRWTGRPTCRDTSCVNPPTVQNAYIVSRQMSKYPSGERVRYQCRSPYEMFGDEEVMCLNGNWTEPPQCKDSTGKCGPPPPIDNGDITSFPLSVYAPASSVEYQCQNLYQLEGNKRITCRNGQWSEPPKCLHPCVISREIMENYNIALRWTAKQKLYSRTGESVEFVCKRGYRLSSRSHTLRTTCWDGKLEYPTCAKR

Experiments:
[1] = target: commercial purified human FH (Merck) (human) (UniProt P08603); assay: native gel or EMSA; native PAGE on 4-15% gels in Tris/Glycine, 5 h at 100 V; purified FH stored at 1.5 and 3 mg/ml, commercial FH at 1 mg/ml; both purified
[2] = target: purified human plasma complement Factor H concentrate (human) (UniProt P08603); assay: as above

binding [1] | binding [2] | Substance
binds weakly |  | commercial purified human FH (Merck) (from UniProt P08603 19-1231)
 | binds weakly | purified human plasma complement Factor H concentrate (from UniProt P08603 19-1231)
